Values from PubChem BioAssay AID1259424 (University of Nebraska Medical Center, 2018).
The whole screen tested about 14,000 reagents; below is an unselected part. 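Higher correlation or smaller distance means closer resemblance to KSR1 loss; control wells, including KSR1 knockdowns, recur on many plates.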 Not all columns of the deposit are shown. Not stated in the record: the time to read-out.

- Screen: 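Seek colon cancer survival genes behaving like KSR1, using a six-gene signature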 (primary screen)
- System: human HCT116 colon cancer cells
- Reagent: siRNA pool against human genes, 50 nM
- Read-out: 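Log2 levels of six mRNAs (branched-DNA multiplex), adjusted by two reference genes and the non-targeting median, then scored against the average KSR1 knockdown pattern as Pearson r and euclidean distance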
- Reading the numbers: mean correlation with KSR1 profile: higher = expression change more like KSR1 knockdown

ITM2A: mean correlation with KSR1 profile = -0.0801
NPIPA1: mean correlation with KSR1 profile = 0.808
PAX7: mean correlation with KSR1 profile = 0.102
FRG2: mean correlation with KSR1 profile = -0.318
DPEP3: mean correlation with KSR1 profile = -0.391
CAT: mean correlation with KSR1 profile = 0.389
SYPL1: mean correlation with KSR1 profile = 0.419
ZDHHC1: mean correlation with KSR1 profile = -0.446
PIWIL2: mean correlation with KSR1 profile = 0.102
MKRN3: mean correlation with KSR1 profile = 0.26
EGR3: mean correlation with KSR1 profile = -0.155
UMPS: mean correlation with KSR1 profile = -0.683
TMBIM6: mean correlation with KSR1 profile = -0.669
RNASEL: mean correlation with KSR1 profile = 0.454
LRFN2: mean correlation with KSR1 profile = -0.464
NME1: mean correlation with KSR1 profile = 0.146
MOCS3: mean correlation with KSR1 profile = 0.0941
CLPTM1L: mean correlation with KSR1 profile = 0.816
FBXL8: mean correlation with KSR1 profile = -0.187
BUB1B: mean correlation with KSR1 profile = -0.166
TNS4: mean correlation with KSR1 profile = 0.568
UNC93B1: mean correlation with KSR1 profile = 0.00599
EVA1C: mean correlation with KSR1 profile = -0.614
STIP1: mean correlation with KSR1 profile = -0.421
FOXO3: mean correlation with KSR1 profile = -0.355
CYP3A43: mean correlation with KSR1 profile = 0.648
TSG101: mean correlation with KSR1 profile = -0.649
PURA: mean correlation with KSR1 profile = 0.00835
CFB: mean correlation with KSR1 profile = 0.535
ACTR3B: mean correlation with KSR1 profile = -0.378
TBCCD1: mean correlation with KSR1 profile = -0.809
UTP18: mean correlation with KSR1 profile = -0.335
FXYD2: mean correlation with KSR1 profile = 0.418
SBDS: mean correlation with KSR1 profile = -0.192
BBLN: mean correlation with KSR1 profile = -0.615
RHOD: mean correlation with KSR1 profile = -0.416

Laid out differently: entries from further up
Gene	mean correlation with KSR1 profile
UMPS	-0.683
TMBIM6	-0.669
RNASEL	0.454
LRFN2	-0.464
